Tested on: Crimson Seedless berries
Assay: Berry fresh weight and juice soluble solids, Crimson Seedless experiment
Assay type: in vivo, grape
Details: for Berry wt / Soluble solids: fourteen days after treatment

CC/C=C\CC1C(=O)CCC1CC(=O)OC (centres unmarked) [MeJA, methyl jasmonate]
Effect on berry fresh weight (1125-4500 ppm, 14 DAT): did not affect berry fresh weight
Berry wt (1125 ppm): 5.41 g
Soluble solids (1125 ppm): 19.76 ab Brix
Berry wt (2250 ppm): 5.96 g
Soluble solids (2250 ppm): 19.30 b Brix
Berry wt (4500 ppm): 5.54 g
Soluble solids (4500 ppm): 19.28 b Brix
Effect on juice soluble solids (>2250 ppm, 14 DAT): slightly reduced juice soluble solids
